Reference: US20210391038A1, “SPECIFICALLY-SHAPED CRYSTAL OF COMPOUND AND METHOD FOR PRODUCING SAME” (TOWA PHARMACEUTICAL CO., LTD., priority 2018, published 2021)

Experiment: Filtration time and cake thickness
Settings: trihydrate; for Filtration time Solid-liquid separation: Nutsche, outer diameter 70 mm, reduced pressure; for Filtration time Washing: washing with 20 mL acetone/water (35:65)

| Compound | Filtration time Solid-liquid separation [min] | Cake thickness After compression [mm] | Cake thickness Before compression [mm] | Filtration time Washing [min] |
| --- | --- | --- | --- | --- |
| COc1ccc2[n-]c([S@@+]([O-])Cc3ncc(C)c(OC)c3C)nc2c1.COc1ccc2[n-]c([S@@+]([O-])Cc3ncc(C)c(OC)c3C)nc2c1.O.O.O.[Mg+2] [Example 10(1), esomeprazole magnesium trihydrate] | 1 | 10 | 10 | 0.2 |
| COc1ccc2[n-]c([S@@+]([O-])Cc3ncc(C)c(OC)c3C)nc2c1.COc1ccc2[n-]c([S@@+]([O-])Cc3ncc(C)c(OC)c3C)nc2c1.O.O.O.[Mg+2] [Example 10(2), esomeprazole magnesium trihydrate] | 2 | 11 | 20 | 14 |
